# In the supplement of paper PMC8728848:
# The list shows a part of the results.
# B1: Awp3 (Candida glabrata), B4UN32 (protein)
# chain: MISFVTLLAILGLLSISWADQTVRSVAGDQRVTDPVIVGDNSILDYYGGSNYDFSNNFEIGRGTLYIGKESYFSSFQSAPTDVPNSFHLLIKNTNNLQNNGQFIIENIKRHANQCSNSSIQVFPINFQNDGEFEIISGGVEGRCCLPTSVIAPQNFLNNGKFYYKVLTDTGSIYSGSCMQNVDIGASTTTTVNNNLWEFTGSINAQINGAVSGAAQINLDGSNMFVNANTFSGQVVNLINGGSFLQTSDPLSNIVVINGLGTSDTGVTSIAVKGKGKSFTYNPSSGIVKLTTVEGKTYAYQIGCGYNTKKFITNNDSGASYESADNFFVLTYSEPYSPQTCQLENSSIFSSNFISTSTSSSSSSSSASSLPSSMSSSLPSSLSSSLSSSLSSSMSSSMSSLFIIPPPYTTTRSSGSSIIDTEIVSFYSTTDSPGHTITGTTTTTLYGPHTHSSVSTPSSSSESSTTSNSSIESSSLPHTSVSSTPESSITPSSNTISSSPTSDFSSVQSSSIMESSSVVASSSVINSSSIVDSSSSSASSLPSSMSSSLSSSMSSSLPSSMSSSLSSSLSSSLSSSMSSSMSSLFIIPPPYTTTRSSGSSIIDTEIVSFYSTTDSPGHTITGTTTTTLYGPHTHSSVSTPSSSSESSTTSNSSIESSSLPHTSVSSTPESSITPSSNTISSSPTSDFSSVQSSSIMESSSVVASSSVINSSSIVDSSSSSASSLPSSMPSSLPSSMSSSLSSSMSSSLSSSLSSSLSSSMSSSMSSLFIIPPPYTTTRSSGSSIIDTEIVSFYSTTDSPGHTITGTTTTTLYGPHTHSSVSTPSSSSESSTTSNSSIESSSLPHTSVSSTPESSITPSSNTISSSPTSDFSSVQSSSIMESSSVVASSSATQSSSVINSSSIVDSSSSSASSLPSSMPSSLPSSLSSSLSSSLSSSMSSSMSSLFIIPPPYTTTRSSGSSIIDTEIVSFYSTTDSPGHTITGTTTTTLYESSIYSSSSSTIQESELSNTSRTTMTSNSSVSISSTSSRSSFSNTKSSTIVISQSASLPDSKTDIILSTSSNIGYSSRSLLSDLGTSISDSDIHHSVLHSTESYSSNESGTNPFTSIASLSNFIPESSSHTSTALGSENSVISSDILTTMSHPVATNSGDKPTTPKRSEQVSTTMTSSGPTPDTSSFDTDGMSAYSRPEFTTNSLEVNKSSTSQLGNNKQTFSNLQLESTRPHSENEVDNNTRLLQSIQQSSTYGTNNVNPLSPTGSISIPLTEDGQGDNNNWNSPATNDLCTQISFNLTATTITVTDRITITDSIHDISSEVITSYIYQTIVDQKTVTQTVDGKSLANKMSSIPKPSSRSLIQPQPPVAIELQEGAASTSRVSLVSLFISIILVLL
# Tests used:
# Experiment in all cases: glycan array binding signal (z-score within array); higher = stronger binding
# Conditions in all cases: glycan notation: IUPAC condensed, linker removed
# [1] = target: Fuc(a1-2)[GalNAc(a1-3)]Gal(b1-3)GlcNAc(b1-6)GalNAc
# How it was run: (§1)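 The Consortium for Functional Glycomics database supplied 3228 glycan arrays, of which those lacking an available protein sequence were dropped. The binding signal, a within-array Z-score, was averaged across arrays of the same protein sequence and across linkers. Negative scores can be read as non-binding.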
# [2] = target: Fuc(a1-2)[GalNAc(a1-3)]Gal(b1-4)Glc
# How it was run: as §1
# [3] = target: Fuc(a1-2)[GalNAc(a1-3)]Gal(b1-4)GlcNAc
# How it was run: as §1
# [4] = target: Fuc(a1-2)[GalNAc(a1-3)]Gal(b1-4)GlcNAc(b1-2)Man
# How it was run: as §1
# [5] = target: Fuc(a1-2)[GalNAc(a1-3)]Gal(b1-4)GlcNAc(b1-2)Man(a1-3)[Fuc(a1-2)[GalNAc(a1-3)]Gal(b1-4)GlcNAc(b1-2)Man(a1-6)]Man(b1-4)GlcNAc(b1-4)GlcNAc
# How it was run: as §1
# [6] = target: Fuc(a1-2)[GalNAc(a1-3)]Gal(b1-4)GlcNAc(b1-2)Man(a1-3)[Fuc(a1-2)[GalNAc(a1-3)]Gal(b1-4)GlcNAc(b1-2)Man(a1-6)]Man(b1-4)GlcNAc(b1-4)[Fuc(a1-6)]GlcNAc
# How it was run: as §1
# [7] = target: Fuc(a1-2)[GalNAc(a1-3)]Gal(b1-4)GlcNAc(b1-3)Gal(b1-4)GlcNAc
# How it was run: as §1
# [8] = target: Fuc(a1-2)[GalNAc(a1-3)]Gal(b1-4)GlcNAc(b1-3)Gal(b1-4)GlcNAc(b1-3)Gal(b1-4)GlcNAc
# How it was run: as §1
# [9] = target: Fuc(a1-2)[GalNAc(a1-3)]Gal(b1-4)GlcNAc(b1-3)GalNAc
# How it was run: as §1
# [10] = target: Fuc(a1-2)[GalNAc(a1-3)]Gal(b1-4)GlcNAc(b1-3)[Fuc(a1-2)[GalNAc(a1-3)]Gal(b1-4)GlcNAc(b1-6)]GalNAc
# How it was run: as §1
# [11] = target: Fuc(a1-2)[GalNAc(a1-3)]Gal(b1-4)GlcNAc(b1-6)GalNAc
# How it was run: as §1
# [12] = target: Fuc(a1-2)[GalNAc(a1-3)]Gal(b1-4)[Fuc(a1-3)]GlcNAc
# How it was run: as §1
# [13] = target: Fuc(a1-2)[GalNAc(a1-3)]Gal(b1-4)[Fuc(a1-3)]GlcNAc(b1-3)GalNAc
# How it was run: as §1
# [14] = target: Fuc(a1-2)[GalNAc(a1-4)]Gal(b1-4)GlcNAc
# How it was run: as §1
# [15] = target: Fuc(a1-2)[GalNAc(b1-3)]Gal
# How it was run: as §1
# [16] = target: Fuc(a1-3)GlcNAc
# How it was run: as §1
# [17] = target: Fuc(a1-3)[Gal(b1-4)]Glc6S
# How it was run: as §1
# [18] = target: Fuc(a1-3)[Gal(b1-4)]GlcNAc
# How it was run: as §1
# [19] = target: Fuc(a1-3)[Gal(b1-4)]GlcNAc(b1-2)Man
# How it was run: as §1
# [20] = target: Fuc(a1-3)[Gal(b1-4)]GlcNAc(b1-2)Man(a1-3)[Fuc(a1-3)[Gal(b1-4)]GlcNAc(b1-2)Man(a1-6)]Man(b1-4)GlcNAc(b1-4)GlcNAc
# How it was run: as §1
# [21] = target: Fuc(a1-3)[Gal(b1-4)]GlcNAc(b1-2)Man(a1-3)[Fuc(a1-3)[Gal(b1-4)]GlcNAc(b1-2)Man(a1-6)]Man(b1-4)GlcNAc(b1-4)[Fuc(a1-6)]GlcNAc
# How it was run: as §1
# [22] = target: Fuc(a1-3)[Gal(b1-4)]GlcNAc(b1-3)Gal(b1-3)[Fuc(a1-4)]GlcNAc
# How it was run: as §1
binder,measurement,setting,value
B1,glycan array binding signal (z-score),[1],0.16
same,glycan array binding signal (z-score),[2],0.303
same,glycan array binding signal (z-score),[3],0.008
same,glycan array binding signal (z-score),[4],-0.968
same,glycan array binding signal (z-score),[5],-0.074
same,glycan array binding signal (z-score),[6],0.233
same,glycan array binding signal (z-score),[7],-1.51
same,glycan array binding signal (z-score),[8],0.634
same,glycan array binding signal (z-score),[9],-1.39
same,glycan array binding signal (z-score),[10],0.218
same,glycan array binding signal (z-score),[11],0.264
same,glycan array binding signal (z-score),[12],-0.973
same,glycan array binding signal (z-score),[13],-1.25
same,glycan array binding signal (z-score),[14],-0.218
same,glycan array binding signal (z-score),[15],1.15
same,glycan array binding signal (z-score),[16],-1.25
same,glycan array binding signal (z-score),[17],-1.57
same,glycan array binding signal (z-score),[18],-1.34
same,glycan array binding signal (z-score),[19],1.78
same,glycan array binding signal (z-score),[20],-0.607
same,glycan array binding signal (z-score),[21],0.65
same,glycan array binding signal (z-score),[22],-1.29

# 2 entries drawn at random from those above, as already listed:
binder,measurement,setting,value
B1,glycan array binding signal (z-score),[19],1.78
same,glycan array binding signal (z-score),[8],0.634
